Measurements reported in PubChem BioAssay AID1159578 (Peter MacCallum Cancer Centre, 2015).

- Aim: 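Knock-downs that alter how fast lymphatic endothelial cells migrate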 (primary screen)
- System: human lymphatic endothelial cells
- Reagent: siRNA pool against human genes, 40 nM
- Time to read-out: 48 h after transfection
- Measured: 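Cells stained with dye and imaged after a scratch; covered wound area and nuclei counted, duplicates averaged, migration set against mock wells and turned into a robust z-score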
- Scale: migration robust z-score: higher = faster migration into the scratch; nuclei per well: higher = more cells in the well
- Hit rule: 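Migration changed when robust z exceeds 2 or falls below -2 and mean nuclei number is at least 3300; otherwise not called changed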
- Meaning of the calls: active = migration changed; inactive = no migration change, or too few cells
Shown is one part, drawn at random, of about 18,000 reagents. About 1,030 of them (5.7%) count as active. 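Inactive calls also include pools with fewer than 3300 nuclei, whose migration was not assessed.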 Raw values vary from plate to plate and are shown uncorrected. Further read-outs or replicates are left out here.

| target | migration robust z-score | nuclei per well, duplicate mean | Outcome |
| --- | --- | --- | --- |
| ABHD16B | -2.05 | 3798 | active |
| NDUFAB1 | -0.78 | 4702 | inactive |
| ABCC4 | 1.03 | 5761 | inactive |
| ACOT12 | -0.08 | 5600 | inactive |
| TRPV2 | -1.29 | 4798 | inactive |
| DOCK2 | 0.7 | 6337 | inactive |
| OR56B1 | 0.15 | 4920 | inactive |
| RNF2 | -0.62 | 4794 | inactive |
| PFDN5 | 0.26 | 5548 | inactive |
| OAS1 | -0.08 | 5104 | inactive |
| GPAT4 | 0.68 | 5004 | inactive |
| SAPCD2 | -1.6 | 6235 | inactive |
| TSHZ1 | 0.3 | 6574 | inactive |
| SIX3 | 0.18 | 5514 | inactive |
| OR6C3 | 0.02 | 4864 | inactive |
| KLHL30 | 2 | 4782 | inactive |
| BAZ2B | -0.24 | 5330 | inactive |
| RNLS | 1.04 | 6268 | inactive |
| SLC16A1 | 0.7 | 5786 | inactive |
| SESN3 | -1.42 | 2938 | inactive |
| GPALPP1 | -0.15 | 7176 | inactive |
| KLHL27 | 1.03 | 5170 | inactive |
| GHRH | -1.1 | 3800 | inactive |
| METTL15 | -1.26 | 5744 | inactive |
| INTS10 | 0.95 | 6516 | inactive |
| DENND3 | -0.66 | 4430 | inactive |
| EPHA8 | -1.58 | 3462 | inactive |
| FAM181A | -1.77 | 4536 | inactive |
| DHRS9 | -0.29 | 4846 | inactive |
| SMARCAL1 | -1.19 | 4824 | inactive |

Ordered by “migration robust z-score” (low to high): 5 of the entries above.
| target | migration robust z-score | nuclei per well, duplicate mean | Outcome |
| --- | --- | --- | --- |
| ABHD16B | -2.05 | 3798 | active |
| TRPV2 | -1.29 | 4798 | inactive |
| NDUFAB1 | -0.78 | 4702 | inactive |
| ACOT12 | -0.08 | 5600 | inactive |
| ABCC4 | 1.03 | 5761 | inactive |

Next records follow.
| target | migration robust z-score | nuclei per well, duplicate mean | Outcome |
| --- | --- | --- | --- |
| GSKIP | -0.81 | 3314 | inactive |
| CLYBL | 0.26 | 6766 | inactive |
| DEPDC4 | 0.46 | 5198 | inactive |
| ZNF750 | 2.63 | 7978 | active |
| AFF3 | 1.38 | 6136 | inactive |
| ZNF165 | 0.72 | 5615 | inactive |
| GALNTL5 | -0.72 | 5146 | inactive |
| NGFR | -0.08 | 6937 | inactive |
| OR1G1 | 1.15 | 7751 | inactive |
| TWNK | 0.21 | 6016 | inactive |
| SLC52A1 | -0.94 | 5634 | inactive |
| YDJC | -0.12 | 5347 | inactive |
| ZNHIT1 | 1 | 5864 | inactive |
| UTP25 | -4.31 | 2014 | inactive |
| LY9 | -0.23 | 5496 | inactive |
| TP53BP1 | 0.94 | 6134 | inactive |
| TJAP1 | -2.08 | 5468 | active |
| SRD5A1 | 0.54 | 5210 | inactive |
| CABLES2 | 0.35 | 6609 | inactive |
| FRS3 | -0.9 | 7306 | inactive |
| GLI3 | 0.1 | 4034 | inactive |
| SSMEM1 | -2.16 | 5988 | active |
| PYROXD2 | 1.23 | 6406 | inactive |
| LIPK | 0.5 | 5593 | inactive |
| CSF3 | -0.62 | 6388 | inactive |
| DEDD | 0.06 | 5934 | inactive |
| LSM3 | 0.36 | 7722 | inactive |
